# The other results are listed elsewhere or left out. These are further read-outs of the screen, such as a control signal, another cell line or another target. No call is given for them. Compounds called inactive in the main read-out are mostly missing here. Potencies come from curve fits of mixed quality, noted in brackets.
# Assay: qHTS Assay to Find Inhibitors of Chronic Active B-Cell Receptor Signaling
# Details: ABC-DLBCL IkBa-CBG/CBR reporter, luminescence ratio (green luciferase fused to IkBa over red control in TMD8 lymphoma cells), 4 h
# Method in brief: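 TMD8 ABC-DLBCL cells carrying doxycycline-inducible green luciferase fused to IkappaBalpha plus unfused red luciferase were exposed to compounds (up to 46 uM) for 4 hrs at 37C. Activity came from the overlap-corrected green/red luminescence ratio.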
# [1] = measured here: CBR red luminescence, cell number
# [2] = measured here: IkBa-CBG green luminescence
Structure (SMILES),AC50 [1],AC50 [2]
Nc1nc(SCc2ccc(Cl)cc2Cl)ns1,"25.9 µM [rising, single point]",
O=C(O)c1cnn(-c2nc(-c3ccc(Cl)c(Cl)c3)cs2)c1C(F)(F)F,"22.4 µM [falling, single point]",
CCOc1ccc(C(=O)OCC(=O)Nc2ccc(SC(F)F)cc2)cc1OCC,"25.9 µM [rising, single point]",
CC(=O)OCC(=O)[C@@]12OC3(CCCC3)O[C@@H]1C[C@H]1[C@@H]3CCC4=CC(=O)C=C[C@]4(C)[C@@]3(F)[C@@H](O)C[C@@]12C,"16.4 µM [rising, partial curve, poor fit]",
COc1ccc(S(=O)(=O)Nc2ccc3c(c2)n(C)c(=O)n3C)cc1OC,"10 µM [rising, partial curve]",
CCOc1ccc(C(NC(=O)c2ccco2)c2ccc(OC)c(OC)c2)cc1 (stereo not given),"0.164 µM [falling, full curve, poor fit]",
CCOc1cc(N2CCOCC2)c(OCC)cc1NC(=O)COC(=O)c1ccccc1C,"6.51 µM [rising, single point]",
O=C(CCCN1C(=O)/C(=C/c2ccccc2)SC1=S)NCCCn1ccnc1,"3.16 µM [falling, full curve]",
O=C(O)c1cc(-c2ccc(/C=N/NC(=S)Nc3ccccc3)o2)ccc1Cl,"22.4 µM [falling, single point]",
COc1cccc(NC(=O)CN2CCSc3ccccc32)c1,"11.2 µM [falling, partial curve]",
C=C1C(=O)[C@@]23[C@H](O)C[C@@H]4C(C)(C)CC[C@H](O)[C@@]4(C)[C@@H]2CC[C@@H]1[C@H]3O,"2.06 µM [falling, full curve]","5.17 µM [rising, partial curve, poor fit]"
O=C(Nc1ccccc1Br)C1CCCN1S(=O)(=O)c1cccc2nsnc12 (stereo not given),"0.562 µM [rising, full curve, poor fit]",
CCO[C@@H]1OC(C(=O)Nc2ccccc2)=C[C@H](c2ccccc2)[C@H]1CCCO,"35.5 µM [rising, single point]",
Cc1cc(C)n(C(=O)CNc2ccc(C)c(C)c2)n1,"23.1 µM [falling, single point]",
COc1ccc2nc(N3CCC(C)CC3)c(C#N)cc2c1,"4.61 µM [rising, full curve, poor fit]",
COc1ccc(OC)c(-c2c3cc(O)c(=O)cc-3oc3cc(O)c(O)cc23)c1,"29.1 µM [rising, single point]",
O=S(=O)(NCCc1csc(-c2cccnc2)n1)c1cccs1,"6.51 µM [rising, single point]",
O=C1/C(=C/c2cccnc2)SC(=S)N1c1ccc(F)cc1,"5.8 µM [rising, full curve, poor fit]",
CN(C)CCOC(=O)CC12CC3CC(C1)CC(CC(=O)OCCN(C)C)(C3)C2,"35.5 µM [falling, single point]",
Cc1ccc(S(=O)(=O)NC2=C(N3CCN(Cc4ccccc4)CC3)C(=O)c3ccccc3C2=O)cc1,"2.06 µM [rising, full curve, poor fit]",
Cc1cc(=O)oc2ccc(OCC(=O)N3CCC(C)CC3)cc12,"23.1 µM [rising, single point]",

Structure (SMILES),AC50 [1],AC50 [2]
Cn1nnc2c[n+](CC(=O)c3ccc4ccccc4c3)cc(Br)c21,"5.62 µM [rising, single point]",
Clc1cccc(-c2ccc3ncnc(NCc4ccc5c(c4)OCO5)c3c2)c1,"29.1 µM [falling, single point]",
COC(=O)c1c(C)nc(C)c(C(=O)OC)c1-c1ccc(OC)c(OC)c1,,"11.2 µM [falling, partial curve, poor fit]"
S=C(Nc1ccccc1)Nc1ccc(Cl)cn1,"1.12 µM [rising, full curve, poor fit]",
O=C(CN1C(=O)/C(=C\c2ccccc2Br)Oc2ccccc21)NCCCN1CCOCC1,"17.8 µM [falling, single point]",
O=C(Nc1ccon1)c1csc2c1CCCC2,"7.31 µM [falling, partial curve, poor fit]",
C#CCn1c(=NC(=O)c2cccs2)sc2cccc(OC)c21,"4.11 µM [falling, partial curve, poor fit]",
O=[N+]([O-])c1ccc(C(c2sc3nc(-c4ccco4)nn3c2O)N2CCN(c3cccc(Cl)c3)CC2)cc1 (stereo not given),"35.5 µM [falling, single point]",
CC1(C)CC(=O)C2=C(C1)NC(=O)NC2c1ccc(Cl)cc1 (stereo not given),"25.1 µM [falling, single point]",
CC(C)(C)c1nc(CN2CCOCC2)cc(CN2CCOCC2)c1O,"29.1 µM [rising, single point]",
Cc1ccc(S(=O)(=O)N2CCOCC2)cc1C(=O)N1CCN(S(=O)(=O)c2cccs2)CC1,"0.112 µM [falling, full curve, poor fit]",
Cc1ccc(NC(=O)CCn2nnc3ccccc32)cc1,"14.1 µM [rising, partial curve, poor fit]",
CCc1ccc(Nc2cnn(-c3nc4ccccc4s3)c(=O)c2Cl)cc1,"8.2 µM [rising, partial curve, poor fit]","23.1 µM [rising, partial curve, poor fit]"
CCOC(=O)CCCc1ccc(/C(C)=N/NC(N)=S)cc1,"1.78 µM [falling, partial curve]",
COc1cccc(CNC(=O)N2CCN(c3ccccc3)CC2)c1,"5.01 µM [falling, full curve]",
O=C(NCC1CCCO1)/C(=C\c1ccco1)NC(=O)c1ccccc1 (stereo not given),"3.16 µM [falling, partial curve, poor fit]",
CN1CCN(c2ccc(NC(=O)c3ccc(-c4cccc([N+](=O)[O-])c4)o3)cc2)CC1,"35.5 µM [falling, single point]",
CCc1ccc(NC(=O)CSc2nc3n[nH]c(C)c3c(=N)n2-c2cccc(OC)c2)cc1,"32.6 µM [falling, single point]",
O=[N+]([O-])c1cc([N+](=O)[O-])c(Oc2c(F)cc(F)cc2F)cc1NN1CCCCC1,"31.6 µM [falling, partial curve, poor fit]",
O=C(O)C1CC(=O)N(c2ccc(Br)cc2)C1 (stereo not given),"29.1 µM [falling, single point]",
Cc1ccsc1/C=N/Nc1nc(Cl)c(Cl)cc1Cl,"0.316 µM [rising, full curve]",

Structure (SMILES),AC50 [1],AC50 [2]
O=C(Nc1ccc(Cl)cc1F)c1cc(S(=O)(=O)NCc2ccc3c(c2)OCO3)ccc1F,"35.5 µM [rising, single point]",
COc1ccc(C2CC(c3ccccc3F)=NN2c2ccc(S(N)(=O)=O)cc2)cc1 (stereo not given),"29.1 µM [rising, single point]",
CN(CC(=O)Nc1ccc(Cl)c(C(F)(F)F)c1)C(=O)CCCNC(=O)c1ccc(Cl)cc1,"0.411 µM [falling, full curve]",
CCCN(c1ccc(OCC)cc1)S(=O)(=O)c1ccc2c(c1)NC(=O)CO2,"31.6 µM [falling, partial curve, poor fit]",
Cc1cccc(NC(=O)c2nc[nH]c2C(=O)N[C@@H](Cc2ccccc2)C(=O)OC(C)(C)C)c1,"22.4 µM [rising, single point]",
C[C@H](NC(=O)c1nc[nH]c1C(=O)NCc1ccccc1)c1ccccc1,"32.6 µM [falling, single point]",
CCSC1(SCC)N=C(N)C2(C#N)C(c3ccc(OC)c(OC)c3OC)C12C#N (stereo not given),"18.4 µM [falling, partial curve]",
Cc1ccccc1OCC(=O)Nc1ccc(N2CCN(C(=O)C(C)C)CC2)c(Cl)c1,"17.8 µM [falling, partial curve, poor fit]",
CCOC(=O)C1CCN(c2ncnc3c2c(-c2ccccc2)cn3-c2ccccc2)CC1,"3.55 µM [rising, single point]",
COC(=O)C(C)SC1=N/C(=C/c2ccc(-n3cncn3)cc2)C(=O)N1 (stereo not given),"35.5 µM [falling, single point]",
CN(C)C(=C(C#N)C#N)N1CCN(c2ccc(Cl)cc2)CC1,"2.24 µM [rising, full curve, poor fit]",
CCN(CC)Cc1c(O)ccc2c([N+](=O)[O-])c(C)n(-c3ccc(OC)cc3)c12,"18.4 µM [falling, single point]",
COc1ccc(C2C(C(C)=O)=C(O)C(=O)N2c2ccc(Br)cc2)cc1 (stereo not given),"3.55 µM [rising, partial curve, poor fit]",
NC(=O)[C@@H]1CC2(CC(c3cccc(NC(=O)[C@H]4CCC(=O)N4)c3)=NO2)CN1C(=O)c1ccc(Cl)cc1 (stereo not given in full),"5.62 µM [falling, single point]",
COc1ccc(-c2cc(C(=O)N3CCN(c4ccccc4OC)CC3)no2)cc1OC,"28.2 µM [falling, single point]",
COc1ccc(C(=O)NC(=S)Nc2cccnc2)cc1OC,"5.62 µM [rising, single point]",
O=c1c(Cl)c(Cl)cnn1Cc1nnc(-c2ccc(Cl)cc2)o1,"8.91 µM [falling, partial curve, poor fit]","11.2 µM [rising, partial curve, poor fit]"
Cc1cc(C)c(S(=O)(=O)NCCc2ccncc2)c(C)c1,"3.55 µM [rising, single point]",
COc1cccc(C(=O)N/N=C/C(Br)=C/c2ccccc2)c1,"23.1 µM [falling, partial curve]","29.1 µM [falling, single point]"

# Taken from the entries so far for reference:
Structure (SMILES),AC50 [1],AC50 [2]
NC(=O)[C@@H]1CC2(CC(c3cccc(NC(=O)[C@H]4CCC(=O)N4)c3)=NO2)CN1C(=O)c1ccc(Cl)cc1 (stereo not given in full),"5.62 µM [falling, single point]",
COc1ccc(-c2cc(C(=O)N3CCN(c4ccccc4OC)CC3)no2)cc1OC,"28.2 µM [falling, single point]",

# — PubChem BioAssay AID493014 (National Center for Advancing Translational Sciences (NCATS), 2011)
